Data as given in PubChem BioAssay AID1259308 (NCATS, 2017).
The deposit covers about 59,000 reagents; shown is an unselected part. Of all reagents, about 1,510 (2.6%) got an active call. 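Calls use total luciferase alone and ignore viability, so some active siRNAs may act by altering cell number.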

Aim: 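Knock-downs that increase output of a recombinant reporter protein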 (primary screen)
System: human HEK293 embryonic kidney cells stably expressing firefly luciferase (HEK-CMV-Luc2-Hygro)
Knock-down reagent: single siRNA against human genes, 0.8 pmol siRNA per well
Duration: 72 h
Measured: 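Reporter luminescence and viable-cell signal on separate replicate plates, given as percent of non-targeting control and median/MAD z-scores, plus per-cell luciferase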
Direction: total luciferase, z-score and total luciferase, % of control: higher = more reporter protein produced; luciferase per cell, z-score: higher = more reporter output per viable cell; viable cells, % of control: higher = more viable cells
Hit rule: 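Active when the median/MAD z-score for overall luciferase is greater than 3; a gene was taken forward for validation with new siRNAs if at least two of its three siRNAs passed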
Calls: active = raised luciferase; inactive = no rise

Target gene | PubChem SID | total luciferase, z-score | total luciferase, % of control | luciferase per cell, z-score | viable cells, % of control | activity call
CASR | SID160736885 | 0.576 | 93.3 | 0.604 | 89 | inactive
CASR | SID160736896 | 1.35 | 109 | 1.22 | 88.2 | inactive
CASR | SID160736906 | 0.00531 | 82 | -0.0319 | 92.4 | inactive
LILRB2 | SID160728090 | -1.15 | 59.1 | 0.645 | 55.7 | inactive
LILRB2 | SID160728091 | -0.917 | 63.7 | -0.0853 | 72.7 | inactive
LILRB2 | SID160728092 | 0.618 | 94.2 | 0.679 | 88 | inactive
TRAF1 | SID160718318 | -0.207 | 77.8 | -0.878 | 110 | inactive
TRAF1 | SID160718319 | 2.58 | 133 | 1.91 | 89.9 | inactive
TRAF1 | SID160731856 | -0.497 | 72 | -0.456 | 90.7 | inactive
ARHGEF15 | SID160732976 | -0.482 | 72.3 | -0.479 | 91.6 | inactive
ARHGEF15 | SID160732985 | -0.46 | 72.7 | -0.701 | 97.7 | inactive
ARHGEF15 | SID160732994 | 2.63 | 134 | 1.89 | 91.1 | inactive
GFAP | SID160770429 | -0.278 | 76.4 | -0.789 | 105 | inactive
GFAP | SID160770441 | -0.144 | 79 | -0.458 | 99.6 | inactive
GFAP | SID160770450 | 0.37 | 89.2 | 0.49 | 87.7 | inactive
TBC1D23 | SID160744324 | 0.824 | 98.3 | 0.587 | 94.1 | inactive
TBC1D23 | SID160744325 | 0.536 | 92.6 | -0.196 | 109 | inactive
TBC1D23 | SID160744326 | 0.208 | 86 | 0.00884 | 95.9 | inactive
LYZL6 | SID160733660 | -0.391 | 74.1 | 0.296 | 76.6 | inactive
LYZL6 | SID160745716 | -0.441 | 73.1 | -0.0396 | 82.5 | inactive
LYZL6 | SID160745717 | -0.99 | 62.2 | -1.53 | 104 | inactive
SLC9A5 | SID160716918 | -0.333 | 75.3 | -0.839 | 105 | inactive
SLC9A5 | SID160716919 | 0.353 | 88.9 | 0.0639 | 97.7 | inactive
SLC9A5 | SID160716920 | -1.48 | 52.5 | -2.01 | 99.7 | inactive
CAV1 | SID160736947 | -1.5 | 52 | -1.27 | 81.2 | inactive
CAV1 | SID160736958 | 0.955 | 101 | 1.19 | 82.3 | inactive
CAV1 | SID160736969 | -0.94 | 63.2 | -1.52 | 105 | inactive
EDNRB | SID160758176 | 1.71 | 116 | 1.63 | 84.2 | inactive
EDNRB | SID160758186 | -0.97 | 62.6 | -1.03 | 91.8 | inactive
EDNRB | SID160758197 | 1.05 | 103 | 0.657 | 96.5 | inactive
DDX25 | SID160739107 | -0.312 | 75.7 | 0.0652 | 83.1 | inactive
DDX25 | SID160739108 | 0.141 | 84.7 | 0.744 | 77.8 | inactive
DDX25 | SID160739109 | 0.375 | 89.3 | 0.205 | 94.6 | inactive
PLA2G2E | SID160739511 | 0.262 | 87.1 | -0.121 | 100 | inactive
PLA2G2E | SID160739512 | -1.08 | 60.4 | -0.885 | 85.2 | inactive
PLA2G2E | SID160739513 | 1.95 | 121 | 1.31 | 95.6 | inactive
ELP6 | SID160742341 | 1.39 | 110 | 0.587 | 105 | inactive
ELP6 | SID160742342 | 2.1 | 124 | 1.18 | 101 | inactive
ELP6 | SID160742344 | -0.611 | 69.7 | 0.265 | 72.7 | inactive
MYOG | SID160777737 | 1.73 | 116 | 1.19 | 95 | inactive
MYOG | SID160777738 | 0.779 | 97.4 | 1.07 | 82.1 | inactive
MYOG | SID160777739 | -0.128 | 79.3 | 0.138 | 85.5 | inactive
EIF1 | SID160726992 | -0.2 | 77.9 | -0.448 | 98 | inactive
EIF1 | SID160727001 | -0.12 | 79.5 | 0.0634 | 87.4 | inactive
EIF1 | SID160727007 | -0.699 | 68 | -0.281 | 81.8 | inactive
FABP5P1 | SID160733196 | 1.89 | 120 | 1.31 | 94.6 | inactive
FABP5P1 | SID160765739 | 1.65 | 115 | 1.32 | 90.6 | inactive
FABP5P1 | SID160765740 | 0.211 | 86.1 | -0.542 | 111 | inactive
GNE | SID160724059 | 0.444 | 90.7 | -0.113 | 104 | inactive
GNE | SID160724068 | -0.598 | 70 | -1.22 | 108 | inactive
GNE | SID160730395 | -0.86 | 64.8 | -1.1 | 96.7 | inactive
ATP1A3 | SID160721334 | 0.365 | 89.1 | 0.0719 | 97.7 | inactive
ATP1A3 | SID160721345 | 0.686 | 95.5 | -0.165 | 112 | inactive
ATP1A3 | SID160721356 | -0.823 | 65.5 | 0.591 | 62.7 | inactive
DACH2 | SID160755527 | 1.42 | 110 | 0.867 | 97.9 | inactive
DACH2 | SID160755528 | 2.24 | 126 | 2.27 | 77.8 | inactive
DACH2 | SID160755529 | 0.0528 | 82.9 | -0.2 | 97.7 | inactive

Just “viable cells, % of control” (7 entries from above):
TBC1D23 [SID160744326]: 95.9
LYZL6 [SID160733660]: 76.6
LYZL6 [SID160745716]: 82.5
LYZL6 [SID160745717]: 104
SLC9A5 [SID160716918]: 105
SLC9A5 [SID160716919]: 97.7
SLC9A5 [SID160716920]: 99.7
